Laboratory results: publication PMC6790244
Results are given in words; binding and its absence hold for the method and conditions named. Binding seen in cells or lysates may run through a third protein. Some binding calls cover weakened binding; strength is not graded here.

Protein sequences, listed by entry. Tags and fused reporters are not part of them.
UniProt Q5SVZ6: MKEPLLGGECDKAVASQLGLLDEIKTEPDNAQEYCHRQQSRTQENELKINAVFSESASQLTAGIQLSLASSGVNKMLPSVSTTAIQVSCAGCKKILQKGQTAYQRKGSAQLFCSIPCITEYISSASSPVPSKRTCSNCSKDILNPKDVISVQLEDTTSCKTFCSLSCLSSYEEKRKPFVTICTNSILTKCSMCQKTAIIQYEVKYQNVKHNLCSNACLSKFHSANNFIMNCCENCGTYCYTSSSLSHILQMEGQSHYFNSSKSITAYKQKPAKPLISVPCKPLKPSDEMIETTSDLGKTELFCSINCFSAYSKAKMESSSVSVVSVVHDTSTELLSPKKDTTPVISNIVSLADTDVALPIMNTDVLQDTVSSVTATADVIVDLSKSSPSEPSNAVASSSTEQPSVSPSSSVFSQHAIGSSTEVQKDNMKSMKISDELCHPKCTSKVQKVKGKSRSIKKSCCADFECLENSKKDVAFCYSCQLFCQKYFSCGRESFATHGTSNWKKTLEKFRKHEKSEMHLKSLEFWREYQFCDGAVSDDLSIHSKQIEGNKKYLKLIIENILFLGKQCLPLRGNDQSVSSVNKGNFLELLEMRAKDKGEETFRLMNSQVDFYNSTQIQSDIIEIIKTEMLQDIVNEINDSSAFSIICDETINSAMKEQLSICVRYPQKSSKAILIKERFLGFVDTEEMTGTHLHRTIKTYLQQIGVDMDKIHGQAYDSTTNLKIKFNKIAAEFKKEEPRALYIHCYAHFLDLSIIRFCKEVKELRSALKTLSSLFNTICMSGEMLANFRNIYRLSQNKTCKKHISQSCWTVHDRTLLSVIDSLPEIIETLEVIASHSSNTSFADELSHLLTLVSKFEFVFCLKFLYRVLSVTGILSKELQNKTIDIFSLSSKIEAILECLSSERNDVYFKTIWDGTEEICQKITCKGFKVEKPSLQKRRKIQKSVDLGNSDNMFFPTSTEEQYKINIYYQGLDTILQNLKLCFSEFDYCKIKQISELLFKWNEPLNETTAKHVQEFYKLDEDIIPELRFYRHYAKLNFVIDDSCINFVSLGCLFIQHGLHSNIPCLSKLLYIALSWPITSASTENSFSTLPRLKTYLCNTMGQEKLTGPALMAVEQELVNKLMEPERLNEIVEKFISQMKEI
UniProt Q9UKL0: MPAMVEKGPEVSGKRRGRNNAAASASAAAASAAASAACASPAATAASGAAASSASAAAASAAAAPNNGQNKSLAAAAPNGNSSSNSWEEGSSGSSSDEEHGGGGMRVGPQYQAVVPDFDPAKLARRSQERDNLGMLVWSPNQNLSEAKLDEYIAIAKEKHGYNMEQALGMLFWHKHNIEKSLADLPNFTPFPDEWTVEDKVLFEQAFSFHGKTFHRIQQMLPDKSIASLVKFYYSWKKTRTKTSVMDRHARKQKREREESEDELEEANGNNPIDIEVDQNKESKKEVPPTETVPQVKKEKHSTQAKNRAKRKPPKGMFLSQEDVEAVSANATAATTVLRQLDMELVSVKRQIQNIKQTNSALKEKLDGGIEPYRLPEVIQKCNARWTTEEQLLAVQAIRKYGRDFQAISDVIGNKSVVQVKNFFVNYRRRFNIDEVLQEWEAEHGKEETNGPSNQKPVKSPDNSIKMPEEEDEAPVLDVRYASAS

Legend:
[1] = target: zinc finger MYM-type containing 1 (ZMYM1) (human (endogenous in BGC823 and MKN-28)) (UniProt Q5SVZ6); experiment: co-IP; whole-cell lysates of GC cells (BGC823, MKN-28); IP with antibodies against ZMYM1 or, reciprocally, against CtBP1/2, LSD1 or CoREST, then immunoblot; lysis buffer 50 mM Tris-HCl pH 7.5, 150 mM NaCl, 15 mM MgCl2, 5 mM EDTA, 0.1% NP-40; antibody 2 h and protein A/G agarose overnight at 4 °C
[2] = target: CoREST (human (endogenous in BGC823 and MKN-28)) (UniProt Q9UKL0); experiment: as above

CoREST (from UniProt Q9UKL0 1-485)
binding [1]: binds

zinc finger MYM-type containing 1 (ZMYM1) (from UniProt Q5SVZ6 1-1142)
binding [2]: binds
